# Measured values taken from PubChem BioAssay AID1347131 (National Center for Advancing Translational Sciences (NCATS), 2019).
# The campaign covered roughly 410,000 compounds. About 2,000 (0.49%) were called active. The shares of active, inactive and inconclusive entries below differ from those in the screen. Calls come from the whole dose curve; tested in HEK293 reporter line. A potency beside an inconclusive call is a rough fit, not a confirmed value.
# Test: qHTS Assay for Foot and Mouth Disease Virus Antivirals: Primary Screen against the MLPCN compound library; note: nearly all actives have a fitted effect of over 55% in size
# Conditions: FMDV antiviral cell-based qHTS; activity, negative = inhibition: at 57.9 µM (top of the series)
# Potency is the fitted concentration of half-maximal effect.
SMILES,"activity, negative = inhibition",Potency
c1ccc(C2=Nn3c(nnc3-c3ccccn3)SC2)cc1,inactive: -38.5%,–
COc1ccc(C(=O)NCCn2cc(SCC(=O)Nc3ccc4c(c3)OCCO4)c3ccccc32)cc1,–,"inconclusive: 5.01 µM [inhibitor, full curve]"
COCC(=O)N1CCC2(CC1)CCN(c1ccc(-c3ccccc3)cc1)CC2,inactive: -32.7%,–
O=C1CC(c2ccco2)CC(O)=C1C=NCCN1CCN(C(=O)Nc2ccc(Cl)cc2)CC1 (stereo not drawn),inactive: -33.6%,–
COc1ccc(-c2cc(C(=O)N3CCN(C(c4ccccc4)c4ccccc4)CC3)no2)cc1OC,–,"inconclusive: 14.1 µM [inhibitor, partial curve, poor fit]"
O=C(Nc1cccc(Cl)c1)c1nc[nH]c1C(=O)Nc1ccccc1F,–,"inconclusive: 39.8 µM [inhibitor, partial curve, poor fit]"
COc1ccc2c(c1)C1(C)CC(C)(C)N2C(=O)N1c1ccccc1 (stereo not drawn),inactive: -39.4%,–
Cc1ccc(CNc2ccc3c(c2)nc(C)n3C)cc1,–,"inconclusive: 17.8 µM [inhibitor, single point]"
O=C(CSc1nc2ccccc2[nH]1)Nc1nc(-c2ccc(Br)cc2)cs1,–,"inconclusive: 22.4 µM [inhibitor, partial curve, poor fit]"
CC(C)(C)N=C1NN=C(c2cc3ccccc3o2)CS1,–,"inconclusive: 14.1 µM [inhibitor, single point]"
Cc1ccsc1C(=O)Nc1ccc2c(c1)OCCO2,–,active: 22.4 µM
O=C(/C=C/c1ccc([N+](=O)[O-])cc1)c1ccccc(=O)c1O,–,"inconclusive: 12.6 µM [inhibitor, partial curve, poor fit]"
CCOc1ccccc1NC(=O)c1nc(S(=O)(=O)Cc2cccc(C)c2)ncc1Cl,–,"inconclusive: 14.1 µM [inhibitor, partial curve, poor fit]"
O=C1OC(c2ccccc2)=NC12CC2c1ccc(Cl)cc1 (stereo not drawn),–,"inconclusive: 28.2 µM [inhibitor, partial curve, poor fit]"
CCOc1ccccc1CNC(=O)CSc1n[nH]c(-c2ccccc2)n1,inactive: -36.7%,–
O=C(NCCc1ccccc1)c1ccc([N+](=O)[O-])cc1,–,"inconclusive: 39.8 µM [inhibitor, single point]"
CC1=Nc2ccccc2/C1=C/c1c(O)n(C)c(=O)[nH]c1=O,–,"inconclusive: 31.6 µM [inhibitor, partial curve, poor fit]"
O=C(CCl)Nc1cc(-c2ccccc2)nn1-c1ccccc1,–,"inconclusive: 5.01 µM [inhibitor, full curve, poor fit]"
CCc1ccc2oc(-c3cc(N=Cc4cccc(OC)c4O)ccc3O)nc2c1,–,active: 20 µM
CN=c1scc(-c2ccc(F)cc2)n1/N=C/c1ccc(O)c(O)c1,–,"inconclusive: 1.26 µM [inhibitor, full curve, poor fit]"
Cn1c(=O)[nH]c(=O)c2c1nc(N1CCCCC1)n2CC(O)COc1ccc([N+](=O)[O-])cc1 (stereo not drawn),–,active: 10 µM

SMILES,"activity, negative = inhibition",Potency
O=C(CSc1ccc(Cl)cc1)Nc1ccc(N2CCN(C(=O)c3ccco3)CC2)cc1,–,"inconclusive: 20 µM [inhibitor, partial curve, poor fit]"
O=C1C(N2CCOCC2)=C(n2nnc3ccccc32)C(=O)c2ccccc21,–,"inconclusive: 10 µM [inhibitor, partial curve, poor fit]"
COc1ccccc1C(=O)NCCOc1ccc(C(C)(C)C)cc1,–,"inconclusive: 15.8 µM [inhibitor, partial curve]"
O=C(COC(=O)COc1ccc(Cl)cc1)NC1CCCC1,–,"inconclusive: 2.51 µM [inhibitor, full curve]"
COc1ccc(CCNC(=O)CSc2nc3ccccc3o2)cc1OC,–,"inconclusive: 15.8 µM [inhibitor, partial curve, poor fit]"
Cc1ccc2c(c1)C(c1ccc(F)cc1)N(C(=O)C(C)C)CC(=O)N2 (stereo not drawn),–,"inconclusive: 8.91 µM [inhibitor, partial curve, poor fit]"
CCc1nnc(NC(=O)c2nc(S(=O)(=O)Cc3ccccc3)ncc2Cl)s1,–,active: 20 µM
CCCCCCCOC(=O)C[N+](C)(C)CCOC1CC2CCC1(C)C2(C)C (stereo not drawn),–,"inconclusive: 35.5 µM [inhibitor, partial curve, poor fit]"
Cc1nc(-c2cccc(NC(=O)c3ccc(Cl)c(S(=O)(=O)N4CCCC4)c3)c2)cs1,inactive: -32.5%,–
Cc1cccc2cc(CN(Cc3ccco3)C(=O)NC3CCCCC3)c(=O)[nH]c12,–,"inconclusive: 17.8 µM [inhibitor, single point]"
Cc1ccc(NC2=CC(=O)C(=O)c3ccccc32)cc1,–,"inconclusive: 39.8 µM [inhibitor, single point]"
COc1ccc(OC)c(CCNC(=O)C(C)n2nc(C)c3c(C)n(-c4ccc(C)cc4)nc3c2=O)c1 (stereo not drawn),–,"inconclusive: 3.55 µM [inhibitor, partial curve, poor fit]"
CC1=CN2C(=N)/C(=C/c3ccco3)C(=O)N=C2S1,–,active: 12.6 µM
COC(=O)c1c[nH]c2c1-c1cc(C(=O)OCc3ccccc3)n(S(=O)(=O)c3ccc(C)cc3)c1C(=O)C2=O,–,"inconclusive: 7.94 µM [inhibitor, full curve, poor fit]"
Cc1ccc(NC(=O)CC(O)(C(F)(F)F)C(F)(F)F)cc1,–,"inconclusive: 17.8 µM [inhibitor, partial curve]"
Cc1cccc(NC(=O)CNC(=O)Cn2ncc(Cl)c(Cl)c2=O)c1C,–,"inconclusive: 22.4 µM [inhibitor, partial curve, poor fit]"
O=C(NCCCN1CCN(C2CCCCC2)CC1)Nc1ccccc1C(F)(F)F,inconclusive: -31.3% [inhibitor],–
Cc1nc(SCC(=O)N2CCN(c3ccccc3)CC2)c2oc3ccccc3c2n1,–,"inconclusive: 25.1 µM [inhibitor, partial curve, poor fit]"
COc1cccc(CNc2nc(NCc3cccs3)nc3ccsc23)c1,–,"inconclusive: 15.8 µM [inhibitor, partial curve]"
CC(=O)Oc1ccccc1C(=O)NC(C)CCc1ccccc1 (stereo not drawn),–,"inconclusive: 25.1 µM [inhibitor, single point]"
CCOc1ccc(CN2CCc3nc(N4CCN(c5ccccn5)CC4)ncc3C2)cc1OC,–,"inconclusive: 12.6 µM [inhibitor, partial curve, poor fit]"

# Rewritten bar-delimited: entries from further up.
SMILES | activity, negative = inhibition | Potency
Cc1nc(-c2cccc(NC(=O)c3ccc(Cl)c(S(=O)(=O)N4CCCC4)c3)c2)cs1 | inactive: -32.5% | –
Cc1cccc2cc(CN(Cc3ccco3)C(=O)NC3CCCCC3)c(=O)[nH]c12 | – | inconclusive: 17.8 µM [inhibitor, single point]
Cc1ccc(NC2=CC(=O)C(=O)c3ccccc32)cc1 | – | inconclusive: 39.8 µM [inhibitor, single point]
COc1ccc(OC)c(CCNC(=O)C(C)n2nc(C)c3c(C)n(-c4ccc(C)cc4)nc3c2=O)c1 (stereo not drawn) | – | inconclusive: 3.55 µM [inhibitor, partial curve, poor fit]
CC1=CN2C(=N)/C(=C/c3ccco3)C(=O)N=C2S1 | – | active: 12.6 µM

# (continued)

SMILES,"activity, negative = inhibition",Potency
COc1ccc(-c2cc(-c3ccccc3O)[nH]n2)cc1,inactive: -68.9%,–
CCOc1ccccc1N1C(=O)NC(=O)/C(=C/c2ccc3c4c(cccc24)CC3)C1=O,–,"inconclusive: 39.8 µM [inhibitor, partial curve, poor fit]"
CC(=O)c1cccc(NC(=O)c2ccc(N(Cc3ccccc3)S(C)(=O)=O)cc2)c1,–,"inconclusive: 31.6 µM [inhibitor, partial curve, poor fit]"
CC(C)N1CCN(Cc2cccc3nonc23)CC1CCO (stereo not drawn),–,"inconclusive: 2.24 µM [inhibitor, full curve]"
CCOc1ccc(NC(=O)C(=O)NCC(c2cccnc2)N2CCc3ccccc32)cc1 (stereo not drawn),–,"inconclusive: 11.2 µM [inhibitor, partial curve, poor fit]"
Cc1cc(C)cc(NC(=O)C[n+]2ccccc2)c1,–,"inconclusive: 12.6 µM [inhibitor, partial curve]"
CC(C)(C)OC(=O)CNC(=O)c1[nH]cnc1C(=O)NCCCCCNC(=O)OC(C)(C)C,–,"inconclusive: 15.8 µM [inhibitor, partial curve, poor fit]"
Cc1ccccc1Cn1nnc(-c2cccc(C(=O)O)c2)n1,–,"inconclusive: 15.8 µM [inhibitor, single point]"
C=C1C(=O)OC2C1CCC(C)=C1C(=O)C3OC3(C)C12 (stereo not drawn),–,"inconclusive: 28.2 µM [inhibitor, partial curve, poor fit]"
COc1cc(NS(=O)(=O)c2ccc(C)cc2C)cc(OC)c1OC,–,active: 20 µM
CC1=C(C(=O)Nc2ccccc2)C(c2ccccc2C)n2ncc(C(=O)Nc3ccccc3)c2N1 (stereo not drawn),–,"inconclusive: 3.98 µM [inhibitor, partial curve, poor fit]"
CN(c1ccccc1)S(=O)(=O)c1ccc(Cl)c(C(=O)Nc2nc3ccccc3[nH]2)c1,inactive: -40.3%,–
CCOc1ccc(-n2c(SCc3nc(-c4ccc(OC)cc4)no3)nnc2-c2ccncc2)cc1,inactive: -39.4%,–
COc1cccc(-c2cc(C(=O)NC3CC3)c3ccccc3n2)c1,inactive: -36.4%,–
CCc1nnc(NC(=O)c2nc(S(=O)(=O)Cc3cccc(C)c3)ncc2Cl)s1,–,"inconclusive: 4.47 µM [inhibitor, full curve, poor fit]"
Cc1ccc2nc(NC(=O)CCCC(=O)O)sc2c1,–,"inconclusive: 7.94 µM [inhibitor, partial curve, poor fit]"
Cn1c(CSCc2ccc(F)cc2)nnc1SCC(=O)Nc1cccc(C(=O)O)c1,–,"inconclusive: 1.12 µM [inhibitor, full curve]"
COC(=O)Nc1ccc(S(=O)(=O)N2CCCc3cccc(O)c32)cc1,–,"inconclusive: 31.6 µM [inhibitor, partial curve, poor fit]"
N#CC(C#N)=Cc1cn(-c2ncc(C(F)(F)F)cc2Cl)c2ccccc12,–,"inconclusive: 28.2 µM [inhibitor, partial curve, poor fit]"
Cc1cccc(C)c1OCC(O)CN1CCC(CN2C(=O)c3cccc4cccc(c34)C2=O)CC1 (stereo not drawn),–,"inconclusive: 22.4 µM [inhibitor, partial curve, poor fit]"
Cc1nnc(NC(=O)c2sc3ccccc3c2Cl)s1,–,"inconclusive: 12.6 µM [inhibitor, single point]"
